Data: PubChem BioAssay AID1347076 (National Center for Advancing Translational Sciences (NCATS), 2019)
In all, about 400,000 compounds went through this assay and about 13,000 (3.2%) were called active. Inconclusive results, whose numbers are uncertain, are shown with a selection of clear calls. Calls come from the whole dose curve; as a rule, active = well fitted cell-killing curve with a large enough effect; inconclusive = small, poorly fitted or top-dose-only effect, or effect the other way; inactive = flat fitted curve, though single readings scatter. Potencies beside an inconclusive call are fits to weak or partial responses and may not hold up. Where a SMILES comes first, the peptide text is derived from it. [ ]: non-standard residue; d: D form. pGlu = O=C1CC[CH](C(=O)O)N1

Experiment: qHTS assay for MDR1-selective chemotherapeutics: Primary screen using the drug-selected MDR subline cells KB-V1; note: nearly all actives have a fitted effect of over 60% in size
Conditions: KB-V1 MDR cells viability, CellTiter-Glo, 72 h; activity change, negative = cytotoxicity: at 46.1 µM (top of the series)
Method in brief: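 In this primary screen, KB-V1 cells overexpressing P-gp are incubated with library compounds (lowest to highest concentration) for 72 h at 37 degrees C before a luminescent ATP viability read.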
% is set by controls: 0 for no effect and ±100 for the full control effect; potency is the fitted concentration of half-maximal effect.

Row | Structure (SMILES) | Potency | activity change, negative = cytotoxicity
1 | O=C(Nc1ccc(Cl)cn1)c1ccc(-c2cc(Cl)ccc2Cl)o1 | inconclusive: 20.6 µM [cytotoxic, single point] | 
2 | COC(=O)c1cc(OC)c(OC)cc1NC(=O)CCN1C(=O)C2CCCCC2C1=O (centres undefined) | inactive | 
3 | Cc1ccccc1OCCCCc1c(C)n[nH]c1C | inconclusive: 29.1 µM [cytotoxic, single point] | 
4 | Cn1nc(C(F)(F)F)c(/C=N/OC(=O)c2ccccc2)c1SCc1ccc(Cl)cc1 | active: 18.4 µM | 
5 | O=C(NCc1ccccc1)c1ccc(S(=O)(=O)N2CCCCCC2)cc1 | inconclusive: 23.1 µM [cytotoxic, single point] | 
6 | CCCn1c(SCC(=O)N(C)C2CCCCC2)n[nH]c1=O | inactive | 
7 | O=C(Cc1ccc(S(=O)(=O)N2CCOCC2)s1)Nc1ccccc1Br | inconclusive: 14.6 µM [cytotoxic, single point] | 
8 | O=C(Nc1ccc(S(=O)(=O)Nc2cnc3ccccc3n2)cc1)c1ccc([N+](=O)[O-])cc1Cl | inconclusive: 18.4 µM [rising, single point] | 
9 | CN(C)c1ccc(C2C=C(c3ccc(Cl)cc3OC(F)F)Nc3ncnn32)cc1 (centres undefined) | active: 11.6 µM | 
10 | CCCCCCC(=O)NNC(=O)c1c(O)c2ccccc2n(CC)c1=O | inconclusive: 3.66 µM [cytotoxic, single point] | 
11 | S=C(NCC1CCCO1)N1CCN(c2nc(-c3ccccc3)cs2)CC1 (centres undefined) | inactive | 
12 | CC(C)NC(=O)c1cccc(Cn2cc(Cl)cn2)c1 | inconclusive: 23.1 µM [cytotoxic, single point] | 
13 | COc1ccc(S(=O)(=O)N2CCCCC2)cc1NC(=O)Cc1sc(C)nc1-c1ccc(F)cc1 | inconclusive: 6.51 µM [cytotoxic, partial curve] | 
14 | O=C(CN1C(=O)NC2(CCCc3ccccc32)C1=O)Nc1cc(F)ccc1F (centres undefined) | inconclusive: 29.1 µM [cytotoxic, single point] | 
15 | COc1ccc2cc3cc(C(=O)NCc4ccccc4OC)oc3nc2c1 | inconclusive: 1.46 µM [cytotoxic, full curve] | 
16 | CCCn1c(NCc2cccc(OC)c2O)nc2ccccc21 | active: 8.2 µM | 
17 | CCOc1ccc(CNS(=O)(=O)c2cc3c(cc2C)NC(=O)CO3)cc1 | inactive | 
18 | OC(COCc1ccc(Cl)cc1)CN1CCN(CC(O)COCc2ccc(Cl)cc2)CC1 (centres undefined) | inconclusive: 9.2 µM [cytotoxic, partial curve, poor fit] | 
19 | O=C(COc1ccccc1)NCC(=O)Nc1cccc2ccccc12 | active: 18.4 µM | 
20 | Cc1ccc(S(=O)(=O)N2CCCCC2)cc1NC(=O)c1ccncc1 | inactive | 
21 | Cc1c(C(=O)NCCSCc2ccc(F)cc2)cnn1-c1ccc(Cl)cc1 | inconclusive: 11.6 µM [cytotoxic, partial curve] | 
22 | CN1CCN(C(=O)c2ccc3c(=O)n(Cc4ccc(Cl)cc4)c(=S)[nH]c3c2)CC1 | inactive | 
23 | NC(=O)CC(NC(=O)Cc1cccc2ccccc12)c1ccc(NCCN2CCCC2)c([N+](=O)[O-])c1 (centres undefined) | inconclusive: 23.1 µM [rising, partial curve, poor fit] | 

Entries shown so far that have an NH in an aromatic ring:
Row | Structure (SMILES) | Potency | activity change, negative = cytotoxicity
3 | Cc1ccccc1OCCCCc1c(C)n[nH]c1C | inconclusive: 29.1 µM [cytotoxic, single point] | 
6 | CCCn1c(SCC(=O)N(C)C2CCCCC2)n[nH]c1=O | inactive | 
22 | CN1CCN(C(=O)c2ccc3c(=O)n(Cc4ccc(Cl)cc4)c(=S)[nH]c3c2)CC1 | inactive | 

Following part.

Row | Structure (SMILES) | Potency | activity change, negative = cytotoxicity
24 | CCCCCCn1c(Br)nc2c1c(=O)n(C)c(=O)n2C | inconclusive: 23.1 µM [cytotoxic, single point] | 
25 | CCC(C)Sc1ccc(-c2nc3ccc(C)cn3c2NCc2ccccc2)cc1OC (centres undefined) | inconclusive: 20.6 µM [cytotoxic, single point] | 
26 | CN(C)CCCn1c(-c2ccccc2)nc(=S)c2c1CCCC2 | inactive | 
27 | COc1ccc(-c2coc3c(C(=O)NCC(C)C)cccc23)c(C)c1 | active: 14.6 µM | 
28 | CCCSc1ccc([C@@H]2[C@H]3C(=O)N(CC)C(=O)[C@H]3[C@]3(C(=O)OC)CCCCN23)cc1 | inconclusive: 29.1 µM [cytotoxic, single point] | 
29 | COc1ccc(Cn2c(=O)c3cccnc3n(CC(=O)Nc3c(C)cc(C)cc3C)c2=O)cc1 | inactive | 
30 | O=C(Nc1cccc(C(F)(F)F)c1)c1cc(-c2ccc3c(c2)OCCO3)on1 | inactive | 
31 | Cc1ccc(C23CC4CC(CC(C(=O)N5CCOCC5)(C4)C2)C3)cc1 | inconclusive: 20.6 µM [cytotoxic, single point] | 
32 | COc1ccccc1-c1cc(C(=O)Nc2cc(C)nn2-c2ccccc2)no1 | active: 6.51 µM | 
33 | CC1(C(=O)Nc2cnc3ccccc3c2)CCN1C(=O)c1ccccc1CCc1ccccc1 (centres undefined) | active: 18.4 µM | 
34 | CCOC(=O)C1CCCN(C(=O)c2ccc(C)cc2O)C1 (centres undefined) | inconclusive: 14.6 µM [cytotoxic, partial curve, poor fit] | 
35 | CC(C)c1c(C(=O)N/N=C/c2ccccc2OCc2c(F)cccc2Cl)nnn1-c1nonc1N | active: 16.4 µM | 
36 | COc1ccc(S(=O)(=O)n2nc(C)c(S(=O)(=O)N3CCC(C)CC3)c2C)cc1OC | inactive | 
37 | COc1ccc(/C=C(\NC(=O)c2ccccc2)C(=O)NNC(=O)CCN2CCOCC2)cc1 | inconclusive: 29.1 µM [rising, single point] | 
38 | CCc1ccccc1NC(=O)c1ccc2nc(C(C)C)oc2c1 | inconclusive: 3.66 µM [cytotoxic, full curve] | 
39 | CC(NC(=O)CSC(=S)N1CCCC1)c1ccc(S(N)(=O)=O)cc1 (centres undefined) | inactive | 
40 | CCC(C)C(NC(=O)C(CC(C)C)NC(=O)C(CO)NC(=O)C1CCC(=O)N1)C(=O)OC (centres undefined) ([pGlu]SLI-OMe; configuration not given here) | inconclusive: 32.6 µM [cytotoxic, single point] | 
41 | CS(=O)(=O)c1ccc(NCCc2ccc(S(N)(=O)=O)cc2)c([N+](=O)[O-])c1 | inactive | 
42 | CCOc1ccccc1OCC(=O)Nc1cccc(S(=O)(=O)N2CCCCCC2)c1 |  | inconclusive: -36.7% [cytotoxic]
43 | C[C@@H]1CN([C@@H](C)CO)C(=O)CCCn2nncc2CO[C@H]1CN(C)Cc1ccccc1C(F)(F)F | inconclusive: 29.1 µM [rising, single point] | 
44 | COc1cc(N(C)C)c([N+](=O)[O-])cc1C(=O)N1CCN(Cc2ccccc2)CC1 | inconclusive: 20.6 µM [cytotoxic, single point] | 
45 | CCN(CC)CCCNC(=S)N1CCN(c2nc(-c3ccc(F)cc3)cs2)CC1 | inconclusive: 23.1 µM [cytotoxic, single point] | 
46 | CCCCCc1c(C)nc(SCC(=O)O)[nH]c1=O | inactive | 

Row | Structure (SMILES) | Potency | activity change, negative = cytotoxicity
47 | Cc1ccc(S(=O)(=O)N2CCC(C(=O)OCC(=O)N3CCc4ccccc43)CC2)cc1 | inconclusive: 20.6 µM [cytotoxic, single point] | 
48 | C/C(=N\Nc1ncc(Cl)cc1Cl)c1ccc(S(=O)(=O)NCc2ccco2)cc1 | active: 2.06 µM | 
49 | CCNC(=S)N=Nc1c(O)[nH]c2ccc(C(C)C)cc12 | active: 3.66 µM | 
50 | CCN(c1cccc(C)c1)S(=O)(=O)c1ccc2c(c1)oc(=O)n2C | inconclusive: 29.1 µM [cytotoxic, single point] | 
51 | CCC1Nc2ncnc(N3CCOCC3)c2N(Cc2ccc(OC)cc2)C1=O (centres undefined) |  | inconclusive: -2.21%
52 | COc1ccc(OC2C(=O)N(Cc3ccc(F)cc3)C2c2ccc(OC)c(OC)c2)cc1 (centres undefined) | inconclusive: 5.17 µM [cytotoxic, partial curve, poor fit] | 
53 | O=C(c1ccc(-c2nnc(-c3ccccc3)o2)cc1)N1CCCCCC1 | inconclusive: 14.1 µM [cytotoxic, partial curve] | 
54 | O=C(NCc1ccccc1)N1CCC(CO)(Cc2cccc(F)c2)CC1 | inconclusive: 23.1 µM [cytotoxic, single point] | 
55 | CCCCCn1c(SCC(=O)OCC)nc2cc(C(=O)NCc3ccco3)ccc2c1=O | active: 20.6 µM | 
56 | COc1cccc(CC(=O)Nc2cc(S(=O)(=O)N3CCOCC3)ccc2N2CCN(C)CC2)c1 | inconclusive: 29.1 µM [rising, single point] | 
57 | CC1(C)CC(=O)c2cc(C#N)c(=O)n(-c3ccc(Cl)cc3)c2C1 | inactive | 
58 | CCOC(=O)C(C)Sc1nc2c([nH]c3ccccc32)c(=O)n1C (centres undefined) | inconclusive: 29.1 µM [cytotoxic, single point] | 
59 | Cc1nnc(SCC(=O)Nc2c(C)n(C)n(-c3ccccc3)c2=O)n1Cc1ccccc1 | inactive | 
60 | CCC(NC(=O)c1cccc(Cn2cc([N+](=O)[O-])cn2)c1)c1ccc(C(C)C)cc1 (centres undefined) | active: 7.31 µM | 
61 | O=C(c1ccc(C(F)(F)F)cc1)C1CCCN(C(=O)c2csnn2)C1 (centres undefined) | inconclusive: 18.4 µM [cytotoxic, single point] | 
62 | Cc1ccc(C2(C)NC(=O)N(CC(=O)N3CCN(S(=O)(=O)c4ccc(Cl)s4)CC3)C2=O)cc1 (centres undefined) | inconclusive: 18.4 µM [cytotoxic, single point] | 
63 | COc1ccc(NC(=O)Cn2cc(C(=O)c3ccccc3)c(=O)c3cc(OC)ccc32)c(OC)c1 | inconclusive: 4.61 µM [rising, full curve, poor fit] | 
64 | Cc1nn(CC(=O)NCCCN2CCC(N3CCCCC3)CC2)c(=O)c2cc(-c3ccccc3)nn12 | inconclusive: 0.259 µM [rising, full curve] | 
65 | O=C(Cc1cccs1)N1CCN=C1SCc1cccc(F)c1 | inactive | 
66 | O=C(NCc1cccnc1)c1nc(-c2ccc(C(F)(F)F)cc2)no1 | inactive | 
67 | COc1ccc(-c2nc(NC(=O)c3[nH]c(C)c(C(C)=O)c3C)sc2C)cc1 | inconclusive: 9.2 µM [cytotoxic, partial curve] | 
68 | COC(=O)c1cn(C(=O)c2ccccc2F)nc1N | inconclusive: 29.1 µM [cytotoxic, single point] | 
69 | CC1(C(=O)Nc2ccc(Cl)c(C(F)(F)F)c2)Cc2c(-c3ccc(C(N)=O)cc3)ccnc2O1 (centres undefined) | inconclusive: 29.1 µM [cytotoxic, single point] | 

Arranged by formula weight (largest number first): some entries from above
Row | Structure (SMILES) | Potency | activity change, negative = cytotoxicity
63 | COc1ccc(NC(=O)Cn2cc(C(=O)c3ccccc3)c(=O)c3cc(OC)ccc32)c(OC)c1 | inconclusive: 4.61 µM [rising, full curve, poor fit] | 
48 | C/C(=N\Nc1ncc(Cl)cc1Cl)c1ccc(S(=O)(=O)NCc2ccco2)cc1 | active: 2.06 µM | 
66 | O=C(NCc1cccnc1)c1nc(-c2ccc(C(F)(F)F)cc2)no1 | inactive | 
